Test results taken from US20190092852A1.
No constants are given. Whether binding was seen depends on the method and setting. Some results given as binding are weak or reduced against the parent protein; the word gives no strength.

Chains of the proteins cited; added tags and fusions are not shown. Residues count along the entry.
UniProt O95760, residues 112-270: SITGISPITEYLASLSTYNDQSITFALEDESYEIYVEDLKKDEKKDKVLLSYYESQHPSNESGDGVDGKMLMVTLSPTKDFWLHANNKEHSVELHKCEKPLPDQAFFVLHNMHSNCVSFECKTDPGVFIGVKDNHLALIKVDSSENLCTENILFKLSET

How the values were obtained:
[1] = target: cyno IL-33 (construct not stated) (cynomolgus monkey); test: ELISA, hybridoma supernatant on coated IL-33
[2] = target: human IL-33 (construct not stated) (human) (UniProt O95760); test: ELISA, hybridoma supernatant on coated IL-33
[3] = target: biotinylated cyno IL-33 (cynomolgus monkey); test: competitive binding ELISA; biotin-cyIL-33 pre-mixed with antibody, binding to coated human ST2-Fc detected

Row | Binder | binding [1] | binding [2] | binding [3]
1 | 10H2 (antibody, V domains shown) VH: EVKLEESGGGLVQPGGSMKLSCVASGFTFSNYWMNWVRQSPEKGLEWMAEITLKFNNYSTHYAESVKGRFSISRDDSKSTVYLQMNNLRAEDTGIYYCARRNYGDWYINVWGAGTTVTVSS VL: DIVLTQSPTSLAVSLGQRATISCRASESVDKFGMSFLNWFQQKPGQPPKLLIFVASSQGSGVPARFSGSGSGTDFSLNIHPVEEDDTAMYFCQQSKDIPYTFGGGTKLEIK | binds | – | –
2 | 10C12 (antibody, V domains shown) VH: DVNLVESGGGSVKPGGSLKLSCVASGFTFSSFSMSWVRQTPEKRLEWVATISGGKTFTDYVDSVKGRFTISRDDAKNTLYLQMSSLESEDTAMYYCTRANYGNWFFEVWGAGTTVAVSS VL: DIVLTQSPGFLVVSLGQRATISCRASESVAKYGLSLLNWFQQKPGQPPKLLIFAASNRGSGVPARFSGSGSGTDFSLNIHPMEEDDTAMYFCQQSKEVPFTFGSGTKLEIK | binds | binds | –
3 | 2B6 (antibody, V domains shown) VH: EVLLQQSGPELVKPGASVKISCNASGYTFSDYNMNWVKQSHGKSLESIGDINPKNGDTFYNQNFKDKATLTIDKSSSTVYMELRSLTSEDTAMYYCARHYYYGSSYGGFVYWGQGTLVTVAA VL: DIQMNQSPSSLSASLGDTITITCHASQNINVWLSWYQQKAGNNPKLLIYAASKLHTGVPSRFTGSGSGTLFTLTISSLQPEDIATYYCQQGQSYPLTFGSGTNLELK | binds | – | –

Continued, values first:

Row | binding [1] | binding [2] | binding [3] | Binder
4 | – | – | binds | 10C12.38.H6.87Y.58I IgG4 (antibody, V domains shown) VH: EVQLVESGGGLVQPGGSLRLSCAASGFTFSSFSMSWVRQAPGKGLEWVATISGGKTFTDYVDSVKGRFTISRDDSKNTLYLQMNSLRAEDTAVYYCTRANYGNWFFEVWGQGTLVTVSS VL: EIVLTQSPATLSLSPGERATLSCRASESVAKYGLSLLNWFQQKPGQPPRLLIFAASNRGSGIPARFSGSGSGTDFTLTISSLEPEDFAVYYCQQSKEVPFTFGQGTKVEIKR
5 | binds | – | – | 9F6 (antibody, V domains shown) VH: QVQLQQSGNDLVKPGASVKLSCKASGYTFTSYWINWIKQRPGQGLEWIGRIAPGSGFISYNELFKDKATLTVDTSSSTAYIQLGSLSSEDSAVYFCAREFYYGSFYGGFAYWGQGTLVTVSA VL: DIQMNQSPSSLSASLGDTITITCHASQNIHVWLSWYQQKPGNIPKLLIYKASTLHTGVPSRFNGSGSGTGFTLTISSLQPEDIATYYCQQGQSSPLTFGAGTKLEVK
